± gives the standard deviation of the averaged measurements. Values are relative to the signal before dosing, not to a vehicle control; the signal also falls without drug.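 Fibroblast labels denote human fibroblasts, mainly primary ones from uterus (C12385, HUF), lung (H6013), bone (Hs27A), adrenal (HADF) and skin (WS1), plus mammary HMF and breast cancer-associated Hs343T. Cancer cells are basal-like or mesenchymal-like triple-negative breast cancer lines. A hit is a response shift exceeding 3x replicate standard deviation. The tissue of the other fibroblasts is not given here.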
Test system: BT20
Test: relative JC-1 red fluorescence (viability) vs pre-drug, coculture with fibroblast (fraction); higher = more viable cancer cells
Method: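 JC-1 labelled TNBC cells cocultured 1:1 (1,500 cells each) with CellTrace Violet stained primary or stromal fibroblasts in 384-well plates in FluoroBrite medium, treated with one of 42 anticancer drugs at 0.1, 1, 10 or 100 uM. JC-1 red fluorescence (mitochondrial integrity in cancer cells only) was read by plate reader every 8 h for 72 h. Values are normalised to each well's pre-drug value. The stock of one drug was tenfold lower, so its dose labels may be too high.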

CCC1=C[C@@H]2CN(C1)Cc1c([nH]c3ccccc13)[C@@](C(=O)OC)(c1cc3c(cc1OC)N(C)[C@H]1[C@@](O)(C(=O)OC)[C@H](OC(C)=O)[C@]4(CC)C=CCN5CC[C@]31[C@@H]54)C2 [Vinorelbine]
relative JC-1 red fluorescence
Settings	8 h	16 h	24 h	32 h	40 h	48 h	56 h	64 h	72 h
10 µM, coculture fibroblast: C12385	0.898 ± 0.018	0.849 ± 0.028	0.805 ± 0.04	0.772 ± 0.021	0.713 ± 0.035	0.67 ± 0.033	0.634 ± 0.035	0.581 ± 0.032	0.55 ± 0.025
10 µM, coculture fibroblast: H6013	0.972 ± 0.027	0.928 ± 0.012	0.867 ± 0.028	0.846 ± 0.012	0.873 ± 0.13	0.838 ± 0.16	0.821 ± 0.17	0.794 ± 0.18	0.776 ± 0.19
10 µM, coculture fibroblast: H6019	0.875 ± 0.0099	0.839 ± 0.031	0.793 ± 0.021	0.736 ± 0.017	0.699 ± 0.012	0.67 ± 0.0078	0.627 ± 0.0099	0.5879 ± 0.0026	0.5687 ± 0.00099
10 µM, coculture fibroblast: H6076	0.783 ± 0.053	0.856 ± 0.15	0.923 ± 0.09	0.848 ± 0.099	0.761 ± 0.055	0.691 ± 0.043	0.633 ± 0.018	0.59 ± 0.026	0.552 ± 0.021
10 µM, coculture fibroblast: H6231	0.749 ± 0.077	0.84 ± 0.21	0.877 ± 0.031	0.797 ± 0.036	0.743 ± 0.038	0.683 ± 0.04	0.626 ± 0.034	0.577 ± 0.02	0.527 ± 0.032
10 µM, coculture fibroblast: HADF	0.834 ± 0.17	0.945 ± 0.05	0.862 ± 0.04	0.851 ± 0.017	0.8 ± 0.015	0.76 ± 0.012	0.752 ± 0.013	0.725 ± 0.017	0.708 ± 0.015
10 µM, coculture fibroblast: HCFa	0.925 ± 0.027	0.905 ± 0.037	0.885 ± 0.049	0.816 ± 0.068	0.773 ± 0.061	0.733 ± 0.071	0.679 ± 0.084	0.65 ± 0.086	0.623 ± 0.097
10 µM, coculture fibroblast: HCPF	0.827 ± 0.14	0.903 ± 0.085	0.939 ± 0.032	0.863 ± 0.053	0.815 ± 0.055	0.745 ± 0.042	0.674 ± 0.038	0.656 ± 0.049	0.609 ± 0.045
10 µM, coculture fibroblast: HHSteC	0.896 ± 0.059	0.864 ± 0.081	0.759 ± 0.061	0.871 ± 0.071	0.918 ± 0.066	0.902 ± 0.064	0.831 ± 0.087	0.81 ± 0.09	0.791 ± 0.08
10 µM, coculture fibroblast: HMF	0.808 ± 0.13	0.985 ± 0.014	0.896 ± 0.015	0.846 ± 0.018	0.7612 ± 0.0069	0.697 ± 0.0091	0.641 ± 0.013	0.589 ± 0.011	0.54 ± 0.024
10 µM, coculture fibroblast: HPFa	0.939 ± 0.015	0.903 ± 0.039	0.874 ± 0.056	0.799 ± 0.063	0.761 ± 0.085	0.704 ± 0.084	0.643 ± 0.087	0.63 ± 0.1	0.594 ± 0.12
10 µM, coculture fibroblast: HUF	0.894 ± 0.023	0.8247 ± 0.0076	0.806 ± 0.016	0.73 ± 0.027	0.683 ± 0.019	0.641 ± 0.019	0.595 ± 0.051	0.563 ± 0.057	0.543 ± 0.065
10 µM, coculture fibroblast: Hs5	0.7048 ± 0.0058	0.842 ± 0.2	0.8952 ± 0.0018	0.846 ± 0.023	0.762 ± 0.038	0.701 ± 0.043	0.644 ± 0.052	0.605 ± 0.044	0.572 ± 0.045
10 µM, coculture fibroblast: Hs27A	0.817 ± 0.025	0.752 ± 0.036	0.911 ± 0.027	0.953 ± 0.012	0.9021 ± 0.0069	0.8671 ± 0.0045	0.822 ± 0.036	0.77 ± 0.034	0.739 ± 0.034
10 µM, coculture fibroblast: Hs343T	0.829 ± 0.035	0.93 ± 0.075	0.886 ± 0.04	0.82 ± 0.039	0.758 ± 0.029	0.714 ± 0.024	0.643 ± 0.01	0.604 ± 0.017	0.561 ± 0.013
10 µM, coculture fibroblast: WS1	0.8601 ± 0.0042	0.8029 ± 0.0026	0.776 ± 0.014	0.71 ± 0.036	0.654 ± 0.033	0.614 ± 0.036	0.566 ± 0.028	0.536 ± 0.034	0.515 ± 0.03
100 µM, coculture fibroblast: C12385	0.653 ± 0.031	0.498 ± 0.013	0.333 ± 0.018	0.23 ± 0.012	0.158 ± 0.0092	0.13 ± 0.01	0.0999 ± 0.0082	0.0784 ± 0.006	0.0569 ± 0.0071
100 µM, coculture fibroblast: H6013	0.706 ± 0.059	0.383 ± 0.057	0.336 ± 0.0076	0.232 ± 0.016	0.186 ± 0.017	0.15 ± 0.018	0.138 ± 0.015	0.109 ± 0.018	0.0819 ± 0.021
100 µM, coculture fibroblast: H6019	0.595 ± 0.031	0.247 ± 0.027	0.179 ± 0.021	0.117 ± 0.0098	0.0749 ± 0.0096	0.0582 ± 0.0087	0.0354 ± 0.007	0.0188 ± 0.0067	0.00562 ± 0.0069
100 µM, coculture fibroblast: H6076	0.835 ± 0.1	0.499 ± 0.088	0.386 ± 0.058	0.336 ± 0.057	0.292 ± 0.065	0.254 ± 0.056	0.223 ± 0.052	0.191 ± 0.05	0.15 ± 0.049
100 µM, coculture fibroblast: H6231	0.621 ± 0.02	0.388 ± 0.04	0.228 ± 0.02	0.177 ± 0.016	0.146 ± 0.014	0.108 ± 0.0069	0.0728 ± 0.013	0.055 ± 0.0078	0.0299 ± 0.0099
100 µM, coculture fibroblast: HADF	0.793 ± 0.079	0.555 ± 0.11	0.418 ± 0.06	0.277 ± 0.057	0.234 ± 0.05	0.187 ± 0.043	0.164 ± 0.044	0.143 ± 0.043	0.108 ± 0.039
100 µM, coculture fibroblast: HCFa	0.887 ± 0.096	0.66 ± 0.015	0.528 ± 0.079	0.386 ± 0.091	0.343 ± 0.1	0.299 ± 0.11	0.283 ± 0.13	0.26 ± 0.12	0.222 ± 0.12
100 µM, coculture fibroblast: HCPF	0.802 ± 0.045	0.521 ± 0.041	0.385 ± 0.079	0.314 ± 0.099	0.274 ± 0.092	0.234 ± 0.084	0.195 ± 0.089	0.166 ± 0.073	0.113 ± 0.057
100 µM, coculture fibroblast: HHSteC	0.644 ± 0.23	0.369 ± 0.17	0.386 ± 0.21	0.309 ± 0.22	0.294 ± 0.25	0.266 ± 0.25	0.265 ± 0.27	0.242 ± 0.28	0.224 ± 0.29
100 µM, coculture fibroblast: HMF	0.774 ± 0.087	0.372 ± 0.055	0.325 ± 0.033	0.279 ± 0.032	0.241 ± 0.037	0.207 ± 0.027	0.177 ± 0.029	0.143 ± 0.03	0.099 ± 0.027
100 µM, coculture fibroblast: HPFa	0.803 ± 0.084	0.683 ± 0.075	0.602 ± 0.068	0.412 ± 0.06	0.346 ± 0.046	0.287 ± 0.046	0.264 ± 0.045	0.234 ± 0.044	0.194 ± 0.041
100 µM, coculture fibroblast: HUF	0.704 ± 0.047	0.532 ± 0.023	0.345 ± 0.0035	0.221 ± 0.0041	0.174 ± 0.0047	0.141 ± 0.0021	0.1238 ± 0.0011	0.103 ± 0.0013	0.0869 ± 0.0033
100 µM, coculture fibroblast: Hs5	0.59 ± 0.11	0.427 ± 0.023	0.307 ± 0.054	0.257 ± 0.053	0.219 ± 0.041	0.181 ± 0.034	0.147 ± 0.032	0.116 ± 0.026	0.0823 ± 0.021
100 µM, coculture fibroblast: Hs27A	0.82 ± 0.12	0.704 ± 0.12	0.6196 ± 0.0029	0.499 ± 0.06	0.458 ± 0.071	0.44 ± 0.085	0.448 ± 0.11	0.417 ± 0.12	0.389 ± 0.14
100 µM, coculture fibroblast: Hs343T	0.743 ± 0.0077	0.334 ± 0.066	0.259 ± 0.042	0.225 ± 0.051	0.192 ± 0.048	0.154 ± 0.043	0.122 ± 0.038	0.0992 ± 0.033	0.0645 ± 0.026
100 µM, coculture fibroblast: WS1	0.542 ± 0.021	0.234 ± 0.03	0.21 ± 0.051	0.155 ± 0.052	0.108 ± 0.043	0.0861 ± 0.04	0.0625 ± 0.037	0.0449 ± 0.039	0.0262 ± 0.035

Reference: the supplement of paper PMC6078165
